According to publication PMC4414150, “Zfra activates memory Hyal-2+ CD3− CD19− spleen cells to block cancer growth, stemness, and metastasis in vivo” (Oncotarget, 2015):
Results are given in words; binding and its absence hold for the method and conditions named. For some assays here: Binding seen in cells or lysates may run through a third protein. Some binding calls cover weakened binding; strength is not graded here. Values belong to the binder of their own block, whether it stands above or below them.

Experiments:
[1] = target: T1, Zfra1–31 (zinc finger-like protein that regulates apoptosis), synthetic full-length peptide; experiment: SDS-PAGE of the incubated peptide (ladder of polymers); Zfra1–31 2 mM in degassed PBS, room temperature, 16–24 hr; reducing SDS-PAGE, Coomassie blue and silver stain; both purified
T1 sequence (peptide): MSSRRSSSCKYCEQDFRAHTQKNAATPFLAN

[2] = target: T1, Zfra1–31 (zinc finger-like protein that regulates apoptosis), synthetic full-length peptide; experiment: co-sedimentation; Zfra1–31 (100 μM) added to whole lysates of L929 fibroblasts treated with or without UV; room temperature 30 min; centrifugation at 13,000 rpm for 15 min; precipitates analysed by Western blotting; only the target purified
Zfra1–15 = experiment: SDS-PAGE of the incubated peptide (ladder of polymers); peptides alone (2 mM in 100 μl PBS) or mixed together, room temperature, 24 hr (legend; the text says sterile MilliQ water, 48 hr); non-reducing and reducing gels; less polymerization in MilliQ water; both purified
Zfra16–31 [3] = target: T2, Zfra16–31; experiment: SDS-PAGE of the incubated peptide (ladder of polymers); peptide 2 mM in PBS, room temperature, 24 hr; much less effective in water; both purified
T2 construct: Zfra, residues 16-31; also called Zfra peptide of amino acid #16–31; source: synthetic peptide (manual synthesis, Genemed Synthesis)
T2 peptide: FRAHTQKNAATPFLAN

Zfra16–31 [4] = target: T2, Zfra16–31; experiment: SDS-PAGE of the incubated peptide (ladder of polymers); peptides alone (2 mM in 100 μl PBS) or mixed together, room temperature, 24 hr (legend; the text says sterile MilliQ water, 48 hr); non-reducing and reducing gels; less polymerization in MilliQ water; both purified

Binder: MSSRRSSSCKYCEQDFRAHTQKNAATPFLAN [Zfra1–31 (zinc finger-like protein that regulates apoptosis), synthetic full-length peptide]
binding [1]: binds

B2: Zfra1–15 (peptide)
peptide: MSSRRSSSCKYCEQD
notes: Zfra, residues 1-15; also called Zfra peptide of amino acid #1–15; source: synthetic peptide (manual synthesis, Genemed Synthesis)
binding (Zfra1–15): binds weakly

The next lines start with the values.

binding [2]: binds
B1: endogenous Hyal-2 (hyaluronidase Hyal-2) of L929 fibroblasts (protein, UniProt O35632 21-448)
chain: GELKPTAPPIFTGRPFVVAWNVPTQECAPRHKVPLDLRAFDVKATPNEGFFNQNITTFYYDRLGLYPRFDAAGTSVHGGVPQNGSLCAHLPMLKESVERYIQTQEPGGLAVIDWEEWRPVWVRNWQEKDVYRQSSRQLVASRHPDWPSDRVMKQAQYEFEFAARQFMLNTLRYVKAVRPQHLWGFYLFPDCYNHDYVQNWESYTGRCPDVEVARNDQLAWLWAESTALFPSVYLDETLASSVHSRNFVSFRVREALRVAHTHHANHALPVYVFTRPTYTRGLTGLSQVDLISTIGESAALGSAGVIFWGDSEDASSMETCQYLKNYLTQLLVPYIVNVSWATQYCSWTQCHGHGRCVRRNPSANTFLHLNASSFRLVPGHTPSEPQLRPEGQLSEADLNYLQKHFRCQCYLGWGGEQCQRNYKGAAGN

binding (Zfra16–31 [3]): binds weakly | binding (Zfra16–31 [4]): binds weakly
Binder: FRAHTQKNAATPFLAN [Zfra16–31]
